PubChem BioAssay AID652259, Drosophila RNAi Screening Center – 2013
In all, the deposit lists about 22,000 reagents; this is an unselected part of those that have a named target and a result. Of all reagents, 233 (1.1%) got an active call. 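Light values are raw, unnormalised plate reads; the ratio scores behind the reporter calls were not deposited.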 Names joined by + are all predicted targets of the reagent. No sequences are given here. Not stated in the record: the amount of reagent, the time to read-out, the dose of the treatment.

Test: 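Identify new Wingless signalling regulators in fly cells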 (primary screen)
Cells: Drosophila clone 8 imaginal disc epithelial cells
Reagents: long dsRNA against Drosophila genes
Challenge: pathway stimulated by co-transfected Wingless expression plasmid
Measured: 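Firefly luciferase from a tcf-site Wingless reporter, measured alongside co-transfected Renilla luciferase that tracks transfection; pathway stimulated by a Wingless plasmid; the firefly-to-Renilla ratio is not deposited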
Direction: firefly reporter light: higher = more Wg reporter light, before normalisation; Renilla control light: higher = more transfected or surviving cells
Call rule: 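Strong candidates differ from their plate mean by at least two out of four per-plate statistical tests; weak candidates meet just one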
Meaning of the calls: active = candidate regulator (raises or lowers reporter); inactive = not a candidate

CG9010 [DRSC07320]
- firefly reporter light, replicate 1: 12329
- Renilla control light, replicate 1: 3120
- Call: inactive

CG5493 + CG5327 [DRSC06938]
- firefly reporter light, replicate 1: 10064
- Renilla control light, replicate 1: 3011
- Call: inactive

Muc68Ca [DRSC10312]
- firefly reporter light, replicate 1: 4113
- Renilla control light, replicate 1: 997
- Call: inactive

Muc68Ca [DRSC10313]
- firefly reporter light, replicate 1: 4128
- Renilla control light, replicate 1: 2306
- Call: inactive

Dtwd2 [DRSC12501]
- firefly reporter light, replicate 1: 15289
- Renilla control light, replicate 1: 3884
- Call: inactive

Polr1H [DRSC14594]
- firefly reporter light, replicate 1: 4777
- firefly reporter light, replicate 2: 7301
- Renilla control light, replicate 1: 976
- Renilla control light, replicate 2: 2272
- Call: inactive

Reprinted from the entries so far, 2 entries:
Dtwd2 [DRSC12501]
- firefly reporter light, replicate 1: 15289
- Renilla control light, replicate 1: 3884
- Call: inactive

Polr1H [DRSC14594]
- firefly reporter light, replicate 1: 4777
- firefly reporter light, replicate 2: 7301
- Renilla control light, replicate 1: 976
- Renilla control light, replicate 2: 2272
- Call: inactive

The results go on:
Mipp2 [DRSC18682]
- firefly reporter light, replicate 1: 2265
- firefly reporter light, replicate 2: 8419
- Renilla control light, replicate 1: 680
- Renilla control light, replicate 2: 2663
- Call: inactive

tw [DRSC18537]
- firefly reporter light, replicate 1: 1593
- firefly reporter light, replicate 2: 3446
- Renilla control light, replicate 1: 695
- Renilla control light, replicate 2: 1269
- Call: inactive

Ir94b [DRSC21439]
- firefly reporter light, replicate 1: 7.02e5
- firefly reporter light, replicate 2: 5.77e5
- Renilla control light, replicate 1: 3.42e5
- Renilla control light, replicate 2: 2.05e5
- Call: inactive

CG10657 [DRSC09768]
- firefly reporter light, replicate 1: 5106
- Renilla control light, replicate 1: 2312
- Call: inactive

Hsp70Bb + Hsp70Bbb [DRSC15885]
- firefly reporter light, replicate 1: 21687
- firefly reporter light, replicate 2: 8.53e5
- Renilla control light, replicate 1: 5201
- Renilla control light, replicate 2: 2.92e5
- Call: inactive

if [DRSC20341]
- firefly reporter light, replicate 1: 20187
- Renilla control light, replicate 1: 10647
- Call: inactive
